Results are given in words; binding and its absence hold for the method and conditions named. In cells and extracts the contact can be indirect. Here binding means that the protein was enriched with, or labelled near, the bait; the list need not be complete.

The chains behind the UniProt entries cited, without tags or fusion partners. Residues count along the entry.
UniProt P08113, residues 22-802: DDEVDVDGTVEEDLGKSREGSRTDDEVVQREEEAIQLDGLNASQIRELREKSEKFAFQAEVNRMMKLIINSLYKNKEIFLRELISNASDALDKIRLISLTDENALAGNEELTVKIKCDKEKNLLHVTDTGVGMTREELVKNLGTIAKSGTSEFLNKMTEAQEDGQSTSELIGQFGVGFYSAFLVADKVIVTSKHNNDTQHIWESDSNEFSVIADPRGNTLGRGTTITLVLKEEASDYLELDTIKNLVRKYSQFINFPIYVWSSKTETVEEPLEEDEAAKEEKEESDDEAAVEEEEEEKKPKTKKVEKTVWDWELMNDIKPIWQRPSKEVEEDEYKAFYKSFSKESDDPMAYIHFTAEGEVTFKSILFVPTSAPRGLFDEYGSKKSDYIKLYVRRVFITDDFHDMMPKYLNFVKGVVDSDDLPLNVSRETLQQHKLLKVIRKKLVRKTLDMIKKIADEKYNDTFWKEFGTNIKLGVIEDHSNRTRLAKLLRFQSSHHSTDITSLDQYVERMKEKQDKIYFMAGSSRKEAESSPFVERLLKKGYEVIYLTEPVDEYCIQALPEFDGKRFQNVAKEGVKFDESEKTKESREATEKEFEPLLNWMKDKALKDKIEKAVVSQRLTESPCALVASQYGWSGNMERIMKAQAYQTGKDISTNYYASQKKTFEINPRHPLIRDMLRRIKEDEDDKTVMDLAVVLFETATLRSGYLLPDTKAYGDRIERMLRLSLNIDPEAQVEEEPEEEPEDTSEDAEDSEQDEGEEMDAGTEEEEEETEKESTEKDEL

Our source for the binding values is article PMC5215799.

The labels stand for the following.
B1: Psmb3 (protein, UniProt Q9R1P1 1-205)
chain: MSIMSYNGGAVMAMKGKNCVAIAADRRFGIQAQMVTTDFQKIFPMGDRLYIGLAGLATDVQTVAQRLKFRLNLYELKEGRQIKPYTLMSMVANLLYEKRFGPYYTEPVIAGLDPKTFKPFICSLDLIGCPMVTDDFVVSGTCSEQMYGMCESLWEPNMDPEHLFETISQAMLNAVDRDAVSGMGVIVHVIEKDKITTRTLKARMD
B2: CNPY3 (protein, UniProt Q9DAU1 27-276)
chain: APKLGPSPAGAEETDWVRLPSKCEVCKYVAVELKSAFEETGKTKEVIDTGYGILDGKGSGVKYTKSDLRLIEVTETICKRLLDYSLHKERTGSNRFAKGMSETFETLHNLVHKGVKVVMDIPYELWNETSAEVADLKKQCDVLVEEFEEVIEDWYRNHQEEDLTEFLCANHVLKGKDTSCLAERWSGKKGDIASLGGKKSKKKRSGVKGSSSGSSKQRKELGGLGEDANAEEEEGVQKASPLPHSPPDEL
B3: CNPY2 (protein, UniProt Q9QXT0 21-182)
chain: RRSQDLHCGACRALVDELEWEIARVDPKKTIQMGSFRINPDGSQSVVEVPYARSEAHLTELLEEVCDRMKEYGEQIDPSTHRKNYVRVVSRNGESSELDLQGIRIDSDISGTLKFACESIVEEYEDELIEFFSREADNVKDKLCSKRTDLCDHALHRSHDEL
B4: Plekho2 (protein, UniProt Q8K124 1-495)
chain: MEEESIKEGSEKPRGARTADKAGWIKKSSGGLLGLWKDRYLLLCQAQLLVYENEDEQKCVETVELGSYEKCQDLRTLLKRKHHRFILLRSPGNKVSDIKFQAPSGEEKESWIKALNEGINRGKNKAFDEVKVDKTCALEHVTRNRVRGGQRRRPPTRIHLKEVASAASDGLSRLDLDVPDSGPPVFAPLSDISEDQPQEPPRALMPPVKPSPGPETSAVEDSKETPAGERALTPDSASSGANPESQEDAETPAKEDSDVKSLPNSTLSEKLKVSWENPSPEKPSAPESAQLSSSETPEATPRESKKPPAPPPKILSEKMKACMSGVDASGSSQSSEAPETTSPEPTQVSVNGMDDGPESALQAMGIPGPAPEDAAASPALPFSDLPSQFHPRSSSLGDLLRESPQHPRLPKEKLYRAQLEVKVASKQTEKLLNQVLGSEPPPVCAESLLSQAVEQLRQATQVLQEMRDLGELNQETPGLVQKRKELVTLYRRSAP
B5: Caprin1 (protein, UniProt Q60865 1-707)
chain: MPSATSHSGSGSKSSGPPPPSGSSGSEAAAGAAAPASQHPATGTGAVQTEAMKQILGVIDKKLRNLEKKKGKLDDYQERMNKGERLNQDQLDAVSKYQEVTNNLEFAKELQRSFMALSQDIQKTIKKTARREQLMREEAEQKRLKTVLELQYVLDKLGDDDVRTDLKQGLSGVPILSEEELSLLDEFYKLVDPERDMSLRLNEQYEHASIHLWDLLEGKEKPVCGTTYKALKEIVERVFQSNYFDSTHNHQNGLCEEEEAASAPTVEDQVAEAEPEPAEEYTEQSEVESTEYVNRQFMAETQFSSGEKEQVDEWTVETVEVVNSLQQQPQAASPSVPEPHSLTPVAQSDPLVRRQRVQDLMAQMQGPYNFIQDSMLDFENQTLDPAIVSAQPMNPTQNMDMPQLVCPQVHSESRLAQSNQVPVQPEATQVPLVSSTSEGYTASQPLYQPSHATEQRPQKEPMDQIQATISLNTDQTTASSSLPAASQPQVFQAGTSKPLHSSGINVNAAPFQSMQTVFNMNAPVPPANEPETLKQQSQYQATYNQSFSSQPHQVEQTELQQDQLQTVVGTYHGSQDQPHQVPGNHQQPPQQNTGFPRSSQPYYNSRGVSRGGSRGARGLMNGYRGPANGFRGGYDGYRPSFSNTPNSGYSQSQFTAPRDYSGYQRDGYQQNFKRGSGQSGPRGAPRGRGGPPRPNRGMPQMNTQQVN
B6: MesD (protein, UniProt Q9ERE7 30-224)
chain: ADTPGEATPPPRKKKDIRDYNDADMARLLEQWEKDDDIEEGDLPEHKRPSAPIDFSKLDPGKPESILKMTKKGKTLMMFVTVSGNPTEKETEEITSLWQGSLFNANYDVQRFIVGSDRAIFMLRDGSYAWEIKDFLVSQDRCAEVTLEGQMYPGKGGGSKEKNKTKPEKAKKKEGDPKPRASKEDNRAGSRREDL

For this assay, the target named is HA-tagged gp96 (UniProt P08113). Briefly: affinity purification with mass spectrometry; RIPA lysate (500 μg) of preB leukemia cells stably expressing HA-tagged gp96, precleared with normal IgG on protein G beads, then anti-HA (clone HA-7) on protein G beads 3 hours at 4°C; eluate on SDS-PAGE, LC-MS/MS.
B1: the binding entry is “binds”. The same measure for B2: “binds”; for B3: “binds”. As for B4, the entry is “binds”; as for B5, “binds”.

Take B6: the binding entry is on record as “binds”.
